This assay relates to primary human hepatic stellate cells (donor 1). The assay is described as follows: percent Bodipy-positive cells; higher = more lipid droplet accumulation. The note with it: 48 h.
Setting [1] is: library stock concentration: 10 mM.
[2] abbreviates: library stock concentration: 1 mM.
[3] abbreviates: library stock concentration: 3.33 mM.

The results in this text go back to the supplement of paper PMC9135407.

Where “and” joins values, the source holds several entries; their conditions need not be identical. Identical values can stand only once. Counter-ions that a name gives are not always drawn. ± gives the standard deviation of the averaged measurements. Some of the results follow. Baselines shift from plate to plate; read single values as rough.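 Assay uses culture-activated primary human stellate myofibroblasts; lipid droplet recovery indicates inactivation. Measured: proportion of Hoechst-counted cells over a plate-specific Bodipy cutoff, duplicate wells, DMSO and nortriptyline as per-plate negative and positive controls. A hit scores, control-normalized, above the plate's top-tenth-percentile nortriptyline wells or ranks among its three best wells. Final well concentrations not reported.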

Take `CC(C)(C)NCC(O)c1ccccc1Cl` (configuration not stated) [Tulobuterol hydrochloride]: the “percent Bodipy-positive cells” value under setting [1] was determined as 34.03 ± 0.079%.

Regarding `C=CCN1C[C@H](C(=O)N(CCCN(C)C)C(=O)NCC)C[C@@H]2c3cccc4[nH]cc(c34)C[C@H]21` [Cabergoline], for the setting “library stock concentration: 4.4 mM”, the “percent Bodipy-positive cells” value is 31.3 ± 1.7%.

`Oc1ccc2c3c1O[C@H]1c4oc5ccccc5c4C[C@@]4(O)[C@@H](C2)N(CC2CC2)CC[C@]314` [Naltriben mesylate]: for the setting “library stock concentration: 4.8 mM”, the “percent Bodipy-positive cells” value amounted to 29.953 ± 0.024%.

As to `CCCCC/C=C\C/C=C\C/C=C\C/C=C\CCCC(=O)NCCO` [Anandamide (22:4,n-6)], the “percent Bodipy-positive cells” value under setting [2] came to 17.9 ± 18%.

On to `CCCCC/C=C\C/C=C\C/C=C\C/C=C\CCCC(=O)NCCO` [Anandamide (18:2,n-6)], for which the “percent Bodipy-positive cells” value under setting [2] turned out to be 11.5 ± 9.8%.

With `CCCCC/C=C\C/C=C\C/C=C\C/C=C\CCCC(=O)NCCO` [Anandamide (20:4, n-6)], the “percent Bodipy-positive cells” value under setting [2] stood at 10.9 ± 1.3%.

For `CCCCC/C=C\C/C=C\C/C=C\C/C=C\CCCC(=O)NCCO` [Anandamide (20:3,n-6)], under setting [2], the “percent Bodipy-positive cells” value came to 13.7 ± 11%.

With `CCCCC/C=C\C/C=C\C/C=C\C/C=C\CCCC(=O)NCCO` [Arachidonoyl Ethanolamide], the “percent Bodipy-positive cells” value under setting [2] was 11.9 ± 1.8%.

For the compound `O=P1(NCCCl)OCCCN1CCCl` (configuration not stated) [Ifosfamide], the “percent Bodipy-positive cells” value is 11.9 ± 2.1%. Besides, under setting [3], the “percent Bodipy-positive cells” value amounted to 6.85 ± 1.6%. The “percent Bodipy-positive cells” value (library stock concentration: 7.7 mM) was 11.4% and 13%. In addition, under setting [1], the “percent Bodipy-positive cells” value stood at 15.4 ± 0.38%.

As for `COc1ccc(C(=O)c2c(C)n(CCN3CCOCC3)c3cc(I)ccc23)cc1`, the “percent Bodipy-positive cells” value under setting [1] worked out at 14.7 ± 5%.

Consider `CC(=O)Oc1ccc(Cl)c2cccnc12` [Chloroacetoxyquinoline], for which the “percent Bodipy-positive cells” value under setting [1] is 45 ± 7.4%.

As for `C[C@H](N)Cn1ccc2cc(F)c(Cl)cc21.O=C(O)/C=C/C(=O)O` [Ro 60-0175 fumarate], the “percent Bodipy-positive cells” value under setting [1] stood at 57.7 ± 7.2%.

As to `CO[C@H](C)[C@](O)(C(=O)OCC1=CCN2CC[C@H](O)[C@@H]12)C(C)C` [Heliotrine], the “percent Bodipy-positive cells” value was 10.7 ± 0.15%.

For `N#CCCN` [3-Aminopropionitrile fumarate], under setting [1], the “percent Bodipy-positive cells” value was 42.2 ± 1.9%.

Take `CC(C)c1c(CN(C)C(C)Cc2ccccc2)n(C)n(-c2ccccc2)c1=O` (configuration not stated) [Famprofazone]: the “percent Bodipy-positive cells” value amounted to 8.68 ± 5.4%.

On to `Oc1ccc(Cl)cc1` [Parachlorophenol], for which the “percent Bodipy-positive cells” value reads like this: under setting [1], 16.5 ± 0.36%; (library stock concentration: 15.6 mM) 3.81 ± 2.9%.

In the case of `CN1CC[C@@]2(C)c3cc(OC(=O)Nc4ccccc4)ccc3N(C)[C@@H]12` [Phenserine], the “percent Bodipy-positive cells” value under setting [1] was 70.9 ± 13%.

Turning to `CCCCCCCCCCCCCCCC(=O)OC[C@H](COP(=O)([O-])OCC[N+](C)(C)C)OC(=O)CCCC=O`, the “percent Bodipy-positive cells” value under setting [2] turned out to be 9.86 ± 0.97%.

With `O=[N+]([O-])C=Cc1ccc2c(c1)OCO2`, the “percent Bodipy-positive cells” value under setting [3] amounted to 97.6 ± 2.3% and the “percent Bodipy-positive cells” value under setting [1] was determined as 99.67 ± 0.47%.

Regarding `C=C(C)[C@@H]1[C@H]2OC(=O)[C@@H]1[C@]1(O)C[C@H]3O[C@]34C(=O)O[C@H]2[C@]14C` [Picrotoxinin], the “percent Bodipy-positive cells” value was 8.74 ± 2.1%.

On to `O=c1[nH]c(=O)n(Cl)c(=O)n1Cl`, for which the “percent Bodipy-positive cells” value under setting [1] was 29 ± 13%.

As for `NC(=O)CN1CCCC1=O` [Piracetam], the “percent Bodipy-positive cells” value was 30.3 ± 1.3%. Besides, the “percent Bodipy-positive cells” value under setting [3] came out at 30.3 ± 8.6%. Also, the “percent Bodipy-positive cells” value under setting [1] is 10.4% and 25.5% and 24.5%.

For `COc1cc2c(cc1OC)C(C)NCC2` (configuration not stated), the “percent Bodipy-positive cells” value amounted to 61.6 ± 8.2%.

As to `NCc1cc(O)no1` [Muscimol], the “percent Bodipy-positive cells” value under setting [1] turned out to be 11.5 ± 0.41%.

`NCc1cc(O)no1` [Muscimol hydrobromide]: the “percent Bodipy-positive cells” value under setting [1] came out at 60.1 ± 1.5%.

As for `CC(=O)NBr` [N-Bromoacetamide], the “percent Bodipy-positive cells” value under setting [1] amounted to 56.5 ± 3.1%.

For `CC1=C(O)C(=O)C=C2C1=CC=C1[C@@]2(C)CC[C@@]2(C)[C@@H]3C[C@](C)(C(=O)O)CC[C@]3(C)CC[C@]12C` [Celastrol], the “percent Bodipy-positive cells” value under setting [2] is 99.56 ± 0.19%.

For `C=C[C@]12CN(C)[C@@H]3[C@H]4CO[C@H](C[C@H]41)[C@]1(C(=O)Nc4ccccc41)[C@@H]32` [Gelsemine], the “percent Bodipy-positive cells” value came out at 8 ± 1.4%.

For `CC(C)NP(=O)(NC(C)C)OP(=O)(NC(C)C)NC(C)C` [Tetraisopropyl pyrophosphoramide], the “percent Bodipy-positive cells” value under setting [1] is 13.7 ± 1.4%.

On to `CC(=O)OCC(=O)[C@H]1CC[C@H]2[C@@H]3CC[C@H]4C[C@H](O)CC[C@]4(C)[C@H]3C(=O)C[C@]12C` [Alfadolone acetate], for which the “percent Bodipy-positive cells” value turned out to be 14.5 ± 2%.

Turning to `C=CCc1ccccc1OCC(O)CNC1(C)CCC(C(C)(C)NC(=O)CBr)CC1` (configuration not stated) [Bromoacetyl alprenolol menthane], the “percent Bodipy-positive cells” value under setting [1] turned out to be 100%.

Turning to `Cc1c2ccncc2c(C)c2c1[nH]c1ccccc12` [Ellipticine], the “percent Bodipy-positive cells” value was determined as 100%. In addition, the “percent Bodipy-positive cells” value under setting [1] is 100%.

Regarding `O=S(=O)(F)Cc1ccccc1`, the “percent Bodipy-positive cells” value was 10.3 ± 10% under setting [3] and 13.2 ± 1.4% under setting [1].

Consider `CN[C@@H]1C[C@H]2O[C@@](C)([C@@H]1OC)n1c3ccccc3c3c4c(c5c6ccccc6n2c5c31)C(=O)NC4` [staurosporine], for which the “percent Bodipy-positive cells” value (library stock concentration: 10.7 mM) is 100%.

With `CN1CC(CNC(=O)OCc2ccccc2)C[C@H]2c3cccc4c3c(cn4C)CC21` (some centres not stated) [Metergoline], under setting [1], the “percent Bodipy-positive cells” value was found to be 92.2 ± 3.2%.

In the case of `CNCC(O)c1ccc(O)c(OC)c1` (stereo not drawn) [Metanephrine hydrochloride DL], the “percent Bodipy-positive cells” value stood at 22.5 ± 4.8%.

As for `Clc1ccc(C(OCCN2CCCCC2)c2ccccc2)cc1` (configuration not stated) [Cloperastine hydrochloride], the “percent Bodipy-positive cells” value was found to be 44.3 ± 1.5%. For the same compound, the “percent Bodipy-positive cells” value under setting [1] stood at 72.3 ± 1.7%.
